No constants are given. Whether binding was seen depends on the method and setting. In cells and extracts the contact can be indirect. Some results given as binding are weak or reduced against the parent protein; the word gives no strength.
Columns and labels:
[1] = molecular target: Cyclin-Dependent Kinase 6 (CDK6) (human (endogenous in Ca Ski)) (UniProt Q00534); assay: co-IP; clarified cell lysates incubated overnight with IgG, anti-HuR or anti-CDK6 antibody, bead A/G 2 hours, washes with PBS with 1% glycerol, Western blot; cells with and without p16 silencing
[2] = molecular target: ELAV-Like Protein 1 (HuR) (human (endogenous in Ca Ski)) (UniProt Q15717); assay: as above

Protein sequences, listed by entry. Tags and fused reporters are not part of them.
UniProt Q00534: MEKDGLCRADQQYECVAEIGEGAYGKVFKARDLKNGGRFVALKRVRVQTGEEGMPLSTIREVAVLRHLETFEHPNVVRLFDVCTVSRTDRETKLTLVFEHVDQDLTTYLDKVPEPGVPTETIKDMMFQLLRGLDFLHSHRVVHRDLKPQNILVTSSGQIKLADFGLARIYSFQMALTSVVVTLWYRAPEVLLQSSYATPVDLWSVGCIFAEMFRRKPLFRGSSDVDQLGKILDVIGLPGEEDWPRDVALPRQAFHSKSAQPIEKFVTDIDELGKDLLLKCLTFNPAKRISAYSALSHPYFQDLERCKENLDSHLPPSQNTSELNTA
UniProt Q15717: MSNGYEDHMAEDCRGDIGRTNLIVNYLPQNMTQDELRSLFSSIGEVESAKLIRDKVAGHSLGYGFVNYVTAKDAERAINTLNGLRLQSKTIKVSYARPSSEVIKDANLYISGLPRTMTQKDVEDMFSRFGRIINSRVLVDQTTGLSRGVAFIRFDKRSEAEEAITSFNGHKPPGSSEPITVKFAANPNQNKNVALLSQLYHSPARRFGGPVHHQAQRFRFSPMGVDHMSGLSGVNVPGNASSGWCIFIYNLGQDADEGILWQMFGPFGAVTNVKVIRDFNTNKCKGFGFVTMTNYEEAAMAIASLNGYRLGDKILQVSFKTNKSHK

| binding [1] | binding [2] | Substance |
| --- | --- | --- |
| binds | – | ELAV-Like Protein 1 (HuR) (from UniProt Q15717 1-326) |
| – | binds | Cyclin-Dependent Kinase 6 (CDK6) (from UniProt Q00534 1-326) (enzyme) |

Source: article PMC6995400
